Measured values: patent US20250194663A1, “ORAL POUCH PRODUCT CONTAINING AMINO ACID OR SALT THEREOF” (Japan Tobacco Inc., priority 2022, published 2025)
Some results were stated once for a whole list of compounds, not compound by compound. At least one compound was matched to its structure with a doubt left.

Conditions: at relative pressures of 0.9 or higher

N[C@@H](CCC(=O)O)C(=O)[O-].[Na+] [MSG, Na glutamate]
Water captured (water adsorption): ≥ 100 % d.b.

NCCCC(=O)O [GABA, γ-aminobutyric acid]
Water captured (water adsorption): ≥ 100 % d.b.
